No constants are given. Whether binding was seen depends on the method and setting. Some results given as binding are weak or reduced against the parent protein; the word gives no strength. Where a sequence is shown, tags or fusion partners need not be part of it.
Biological target: T1, FITC-labeled AC413(6–25)
T1 sequence (peptide, FITC-(Ahx) (aminohexanoic acid) on the N-terminus; C-terminal amide): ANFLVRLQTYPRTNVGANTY
Assay: fluorescence polarisation; binding of AC413 to purified RAMP3-CTR ECD fusion protein compared to CTR ECD alone (Figure S1D; details not shown); both purified

binding: binds
B1: RAMP3-CTR ECD fusion protein (hRAMP3.25–112-(GSA)3-hCTR.34–141-H6) (receptor, human)
chain: AGGCNETGMLERLPLCGKAFADMMGKVDVWKWCNLSEFIVYYESFTNCTEMEANVVGCYWPNPLAQGFITGIHRQFFSNCTVDRVHLEGSAGSAGSAIEPKPFLYVVGRKKMMDAQYKCYDRMQQLPAYQGEGPYCNRTWDGWLCWDDTPAGVLSYQFCPDYFPDFDPSEKVTKYCDEKGVWFKHPENNRTWSNYTMCNAFTPEK
notes: human receptor activity-modifying protein 3 (RAMP3), extracellular domain, residues 25-112; linker, printed as (GSA)3; human calcitonin receptor (CTR), extracellular domain, residues 34-141; Secreted from a pHLsec-based vector; also called AMY receptor 3 ECD; RAMP3 ECD-CTR ECD fusion protein; source: HEK293S GnTI-, transiently transfected (PEI), secreted to cell culture media, purified (IMAC, SEC)

From publication PMC8466238, “Development of High Affinity Calcitonin Analog Fragments Targeting Extracellular Domains of Calcitonin Family Receptors” (Biomolecules, 2021)
